Results on two molecules are retold here after publication doi:10.1101/483123.

These are yes or no findings as the source states them, for the method shown. Binding calls can cover weak binding; strength is not graded here. For some assays here: In cells and extracts the contact can be indirect. For some assays here: Tags and fused reporters may be left off the sequences shown.

Test [1] concerns the target full-length FLAG-tagged PorM (Porphyromonas gingivalis ATCC33277) (UniProt B2RLE8). Briefly: co-IP.
Test [2] deals with full-length FLAG-tagged PorN (Porphyromonas gingivalis ATCC33277) (UniProt B2RLE7). The experiment in a line: co-IP.
For test [3], the target named is FLAG-tagged PorM periplasmic domain, exported to the periplasm (Porphyromonas gingivalis ATCC33277) (UniProt B2RLE8). Briefly: co-IP.
In test [4] the target is T18 fusion to the PorM periplasmic domain (Porphyromonas gingivalis ATCC33277) (UniProt B2RLE8). The experiment in a line: two-hybrid.
Test [5] concerns the target T18 fusion to PorN (lacking the signal peptide) (Porphyromonas gingivalis ATCC33277). The experiment in a line: two-hybrid.

B1: periplasmically-targeted VSV-G-tagged Hbp35 CTD (domain or fragment, UniProt B2RII3 266-344)
chain: AGQESLDKAEPTATEQIVATPSVKAYVQNGKIVVEEEYSKMEVFNATGQLVKNESLVPGVYVVRITANGVMHFLKVLVP
In the case of B1, the binding result in test [1], in test [2] and in test [3] was “binds” throughout.

B2: T25-Hbp35 CTD (C-terminal domain of the Hbp35 hemin-binding protein) (domain or fragment, UniProt B2RII3 266-344)
chain: AGQESLDKAEPTATEQIVATPSVKAYVQNGKIVVEEEYSKMEVFNATGQLVKNESLVPGVYVVRITANGVMHFLKVLVP
Regarding B2, the binding result in test [4] and in test [5] was “binds” throughout.
